Reference: publication PMC12572126

Protein sequences, listed by entry. Tags and fused reporters are not part of them. Lines headed by an entry give the natural chain unless they say otherwise; changes in a name come on top.
UniProt G0S5M5: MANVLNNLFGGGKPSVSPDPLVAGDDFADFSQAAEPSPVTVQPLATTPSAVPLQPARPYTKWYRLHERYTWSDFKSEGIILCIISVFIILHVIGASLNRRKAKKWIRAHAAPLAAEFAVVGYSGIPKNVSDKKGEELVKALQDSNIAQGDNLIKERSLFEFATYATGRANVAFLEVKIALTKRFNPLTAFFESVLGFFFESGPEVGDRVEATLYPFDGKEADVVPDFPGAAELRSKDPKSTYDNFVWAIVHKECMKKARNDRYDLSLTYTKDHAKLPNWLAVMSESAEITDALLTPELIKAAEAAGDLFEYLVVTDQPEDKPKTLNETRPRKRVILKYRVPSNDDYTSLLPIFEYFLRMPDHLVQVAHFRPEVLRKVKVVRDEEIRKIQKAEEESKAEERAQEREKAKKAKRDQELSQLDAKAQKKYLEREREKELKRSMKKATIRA

Tests used:
[1] = target: Chaetomium thermophilum SND3 with a C-terminal TwinStrep tag (Chaetomium thermophilum) (UniProt G0RYQ7); assay: affinity purification with mass spectrometry + SEC; ctSND3-TwinStrep captured on StrepTactin resin from membranes solubilised in 0.5% LMNG, eluted with d-Desthiobiotin, SEC on Superdex 200 increase in 20 mM HEPES pH 8.0, 100 mM potassium acetate, 10 mM magnesium acetate, 0.01% LMNG; Coomassie-stained gel bands identified by MS, western blotting
[2] = target: Chaetomium thermophilum CCDC47 with a FLAG tag (Chaetomium thermophilum) (UniProt G0S5M5); assay: affinity purification with mass spectrometry; tandem purification from the ctSND3-TwinStrep/ctCCDC47-FLAG strain: StrepTactin resin, then anti-FLAG M2 affinity gel, eluted with 3xFLAG peptide, 0.01% LMNG; Coomassie-stained gel bands identified by MS
[3] = target: Chaetomium thermophilum CCDC47 with a FLAG tag (Chaetomium thermophilum) (UniProt G0S5M5); assay: affinity purification with mass spectrometry; eluate of the FLAG-IP of ctCCDC47-FLAG (digitonin; membranes treated with micrococcal nuclease), against a control purification from wild-type C. thermophilum, four independent purifications

| Substance | binding [1] | binding [2] | binding [3] |
| --- | --- | --- | --- |
| Chaetomium thermophilum CCDC47 (untagged, endogenous) (from UniProt G0S5M5) | binds |  |  |
| Chaetomium thermophilum SND3 with a C-terminal TwinStrep tag (from UniProt G0RYQ7) |  | binds | binds |

These are yes or no findings as the source states them, for the method shown. Binding seen in cells or lysates may run through a third protein. These calls come from enrichment with a bait or labelling near it, and not all partners need be listed.
